Taken from: PubChem BioAssay AID1259405 (NCATS, 2018)

Screen: 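Mouse-designed siRNAs used to find CHO productivity engineering targets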 (primary screen)
Cells: Chinese hamster CHO-K1 ovary cells with stable secreted eGFP expression
Reagents: single siRNA against mouse genes, 0.8 pmol siRNA per well (2 µl of 400 nM stock)
Duration: 3 days
Measured: 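Percent of the per-plate non-targeting control median for intracellular GFP per well by laser scanning cytometry and for cell viability by ATP luminescence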
Direction: GFP, % of control: higher = more GFP per well, higher productivity; viability (ATP), % of control: higher = more viable cells (more ATP)
Rule for the call: 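a knock-down is called active if GFP reaches 120% or more of non-targeting control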
The whole screen tested about 50,000 reagents; this is a part drawn at random. In the full data, about 4,000 (8%) are marked active. 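Mouse siRNA library applied to hamster cells; one well for each siRNA.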 The numbers tell different reagents against one gene apart. Reagent sequences are not shown.

| GFP, % of control | viability (ATP), % of control | activity call | Gene | siRNA no. |
| --- | --- | --- | --- | --- |
| 93.4 | 76.2 | inactive | Clcn3 | 1 |
| 113 | 83.8 | inactive | Clcn3 | 2 |
| 17.9 | 24.2 | inactive | Clcn3 | 3 |
| 121 | 85.6 | active | Psmc4 | 1 |
| 2.17 | 2.24 | inactive | Psmc4 | 2 |
| 13.5 | 9.26 | inactive | Psmc4 | 3 |
| 79.8 | 107 | inactive | Zscan20 | 1 |
| 57.7 | 76.3 | inactive | Zscan20 | 2 |
| 57.8 | 70 | inactive | Zscan20 | 3 |
| 73 | 79.5 | inactive | H2-Q5 | 1 |
| 76.9 | 79.6 | inactive | H2-Q5 | 2 |
| 107 | 52.5 | inactive | H2-Q5 | 3 |
| 95 | 111 | inactive | Dsn1 | 1 |
| 106 | 70.4 | inactive | Dsn1 | 2 |
| 69.1 | 82.7 | inactive | Dsn1 | 3 |
| 121 | 99 | active | Pnliprp1 | 1 |
| 142 | 129 | active | Pnliprp1 | 2 |
| 75.1 | 85.7 | inactive | Pnliprp1 | 3 |
| 108 | 60.1 | inactive | Rtn3 | 1 |
| 44.8 | 45.6 | inactive | Rtn3 | 2 |
| 88.3 | 71.6 | inactive | Rtn3 | 3 |
| 109 | 85.1 | inactive | Hsd11b2 | 1 |
| 208 | 69.1 | active | Hsd11b2 | 2 |
| 99.5 | 65.1 | inactive | Hsd11b2 | 3 |
| 66.6 | 77.4 | inactive | Abhd17a | 1 |
| 58.5 | 59.5 | inactive | Abhd17a | 2 |
| 107 | 120 | inactive | Abhd17a | 3 |
| 119 | 45.7 | inactive | Atosb | 1 |
| 78.1 | 61.3 | inactive | Atosb | 2 |
| 59.1 | 58.2 | inactive | Atosb | 3 |
| 60.1 | 75.8 | inactive | Vmac | 1 |
| 72.5 | 89.4 | inactive | Vmac | 2 |
| 40.2 | 43.5 | inactive | Vmac | 3 |
| 56.7 | 66.6 | inactive | Acot12 | 1 |
| 96.5 | 82.7 | inactive | Acot12 | 2 |
| 69 | 46.8 | inactive | Acot12 | 3 |
| 69.3 | 72.5 | inactive | Naga | 1 |
| 66.9 | 78.3 | inactive | Naga | 2 |
| 59.5 | 75.6 | inactive | Naga | 3 |
| 72.1 | 44.9 | inactive | Cdca7l | 1 |
| 79 | 94.2 | inactive | Cdca7l | 2 |
| 130 | 119 | active | Cdca7l | 3 |
| 114 | 76.2 | inactive | Fcer2a | 1 |
| 139 | 81 | active | Fcer2a | 2 |
| 118 | 97.7 | inactive | Fcer2a | 3 |
| 71.9 | 68.8 | inactive | Capn10 | 1 |
| 63.1 | 73.4 | inactive | Capn10 | 2 |
| 115 | 70.5 | inactive | Capn10 | 3 |
| 108 | 92.9 | inactive | Stx7 | 1 |
| 75.6 | 75.6 | inactive | Stx7 | 2 |
| 69.2 | 82.7 | inactive | Pcdhb13 | 1 |
| 87.4 | 69 | inactive | Pcdhb13 | 2 |
| 42.2 | 53.9 | inactive | Slc25a39 | 1 |
| 82.1 | 109 | inactive | Slc25a39 | 2 |
| 110 | 88.7 | inactive | Slc25a39 | 3 |
| 51.1 | 64.7 | inactive | R3hcc1l | 1 |
| 18.5 | 28.2 | inactive | R3hcc1l | 2 |
| 32.7 | 54.8 | inactive | R3hcc1l | 3 |
| 82.2 | 78.3 | inactive | Adgb | 1 |
| 131 | 99 | active | Adgb | 2 |
| 169 | 141 | active | Adgb | 3 |
| 93.5 | 98 | inactive | Sema6d | 1 |
| 44.1 | 37.7 | inactive | Sema6d | 2 |
| 61.4 | 51.1 | inactive | Sema6d | 3 |
| 103 | 72.9 | inactive | Zfp335 | 1 |
| 63.1 | 59.1 | inactive | Zfp335 | 2 |
| 58 | 65 | inactive | Dnaja3 | 1 |
| 59.2 | 82.1 | inactive | Dnaja3 | 2 |
| 62.9 | 95.9 | inactive | Dnaja3 | 3 |
| 82.9 | 99.1 | inactive | Abcg2 | 1 |
| 55.4 | 58 | inactive | Abcg2 | 2 |
| 77.2 | 93.8 | inactive | Abcg2 | 3 |
| 49.3 | 42.1 | inactive | Znhit1 | 1 |
| 54.4 | 54.1 | inactive | Znhit1 | 2 |
| 91.1 | 95.3 | inactive | Znhit1 | 3 |
| 65.4 | 54.6 | inactive | Col2a1 | 1 |
| 110 | 99.8 | inactive | Col2a1 | 2 |
| 109 | 72.8 | inactive | Col2a1 | 3 |
| 105 | 50.3 | inactive | Rrp12 | 1 |
| 81.3 | 58.7 | inactive | Rrp12 | 2 |
| 67.5 | 87.9 | inactive | Rrp12 | 3 |
| 68.4 | 46.6 | inactive | Mttp | 1 |
| 61.3 | 66.9 | inactive | Mttp | 2 |
| 90.3 | 68.5 | inactive | Mttp | 3 |

In a second layout: entries from further up.
"GFP, % of control","viability (ATP), % of control",activity call,Gene,siRNA no.
13.5,9.26,inactive,Psmc4,3
79.8,107,inactive,Zscan20,1
57.7,76.3,inactive,Zscan20,2
57.8,70,inactive,Zscan20,3
73,79.5,inactive,H2-Q5,1
